Experimental data published in publication PMC6250667.
Results are given in words; binding and its absence hold for the method and conditions named. In cells and extracts the contact can be indirect. A yes stands for co-enrichment or nearness to the bait. Other partners may have been found. Sequences can lack the tags named with a protein.

Protein sequences, listed by entry. Tags and fused reporters are not part of them.
UniProt P67775: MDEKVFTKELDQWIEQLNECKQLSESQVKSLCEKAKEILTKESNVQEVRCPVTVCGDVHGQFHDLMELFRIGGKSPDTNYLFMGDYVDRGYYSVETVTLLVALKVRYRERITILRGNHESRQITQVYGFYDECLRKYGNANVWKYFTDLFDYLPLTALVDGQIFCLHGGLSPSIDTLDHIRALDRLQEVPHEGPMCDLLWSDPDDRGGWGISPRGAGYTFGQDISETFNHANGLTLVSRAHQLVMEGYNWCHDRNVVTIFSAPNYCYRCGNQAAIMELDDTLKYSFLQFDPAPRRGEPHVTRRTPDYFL
UniProt P62714: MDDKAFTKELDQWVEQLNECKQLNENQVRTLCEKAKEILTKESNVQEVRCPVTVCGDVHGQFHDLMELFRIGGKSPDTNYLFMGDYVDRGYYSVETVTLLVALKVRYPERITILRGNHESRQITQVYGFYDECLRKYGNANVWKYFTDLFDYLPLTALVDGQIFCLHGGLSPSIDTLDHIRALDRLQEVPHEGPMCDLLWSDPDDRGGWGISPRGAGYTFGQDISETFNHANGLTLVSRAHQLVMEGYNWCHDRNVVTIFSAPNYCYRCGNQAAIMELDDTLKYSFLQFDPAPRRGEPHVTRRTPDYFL
UniProt P30153: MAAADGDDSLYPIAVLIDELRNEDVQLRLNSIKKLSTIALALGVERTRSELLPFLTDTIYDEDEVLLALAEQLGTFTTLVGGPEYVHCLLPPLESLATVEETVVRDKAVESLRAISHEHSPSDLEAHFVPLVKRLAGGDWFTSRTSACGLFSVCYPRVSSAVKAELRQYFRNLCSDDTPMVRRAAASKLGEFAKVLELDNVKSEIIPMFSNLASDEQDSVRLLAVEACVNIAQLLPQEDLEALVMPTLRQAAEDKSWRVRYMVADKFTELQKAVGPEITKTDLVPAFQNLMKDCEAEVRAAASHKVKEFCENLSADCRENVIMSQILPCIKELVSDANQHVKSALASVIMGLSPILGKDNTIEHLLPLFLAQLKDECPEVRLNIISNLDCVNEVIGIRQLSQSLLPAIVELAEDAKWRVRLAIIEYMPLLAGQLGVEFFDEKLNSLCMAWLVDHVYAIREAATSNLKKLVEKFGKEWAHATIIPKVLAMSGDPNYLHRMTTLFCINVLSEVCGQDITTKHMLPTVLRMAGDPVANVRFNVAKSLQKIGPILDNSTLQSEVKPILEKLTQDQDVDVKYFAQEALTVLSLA
UniProt P63151: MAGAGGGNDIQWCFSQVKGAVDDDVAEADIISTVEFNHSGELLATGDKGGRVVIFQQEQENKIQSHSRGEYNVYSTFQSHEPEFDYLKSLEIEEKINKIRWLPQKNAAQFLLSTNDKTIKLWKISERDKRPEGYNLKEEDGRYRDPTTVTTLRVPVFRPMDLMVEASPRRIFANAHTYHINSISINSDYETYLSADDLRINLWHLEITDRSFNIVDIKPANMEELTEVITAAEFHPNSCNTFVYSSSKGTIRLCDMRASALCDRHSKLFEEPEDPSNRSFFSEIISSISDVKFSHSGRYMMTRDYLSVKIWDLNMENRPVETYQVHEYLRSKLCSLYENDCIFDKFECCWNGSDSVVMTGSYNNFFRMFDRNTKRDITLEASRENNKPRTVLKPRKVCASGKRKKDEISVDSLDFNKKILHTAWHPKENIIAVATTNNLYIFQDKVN

T1: FLAG Foxi3 FL 1–399 (mouse) (UniProt D3Z120)
T1 sequence: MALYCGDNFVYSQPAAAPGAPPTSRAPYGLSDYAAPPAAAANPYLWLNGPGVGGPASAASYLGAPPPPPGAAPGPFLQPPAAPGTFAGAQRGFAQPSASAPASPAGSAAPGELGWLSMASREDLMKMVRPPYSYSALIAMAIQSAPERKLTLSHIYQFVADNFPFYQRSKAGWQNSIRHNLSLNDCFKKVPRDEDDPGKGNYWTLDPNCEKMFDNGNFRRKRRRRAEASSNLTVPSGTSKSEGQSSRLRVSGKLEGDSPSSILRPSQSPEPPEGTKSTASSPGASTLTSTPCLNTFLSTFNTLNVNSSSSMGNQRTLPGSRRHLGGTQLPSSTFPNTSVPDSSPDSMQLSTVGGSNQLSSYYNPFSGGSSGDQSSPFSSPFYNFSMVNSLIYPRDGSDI

B1: PPP2R2D (PP2A regulatory B subunit, isoform δ), endogenous (protein, UniProt Q66LE6 1-453)
chain: MAGAGGGGCPAGGNDFQWCFSQVKGAIDEDVAEADIISTVEFNYSGDLLATGDKGGRVVIFQREQENKSRPHSRGEYNVYSTFQSHEPEFDYLKSLEIEEKINKIRWLPQQNAAHFLLSTNDKTIKLWKISERDKRAEGYNLKDEDGRLRDPFRITALRVPILKPMDLMVEASPRRIFANAHTYHINSISVNSDHETYLSADDLRINLWHLEITDRSFNIVDIKPANMEELTEVITAAEFHPHQCNVFVYSSSKGTIRLCDMRSSALCDRHSKFFEEPEDPSSRSFFSEIISSISDVKFSHSGRYMMTRDYLSVKVWDLNMESRPVETHQVHEYLRSKLCSLYENDCIFDKFECCWNGSDSAIMTGSYNNFFRMFDRDTRRDVTLEASRESSKPRASLKPRKVCTGGKRRKDEISVDSLDFNKKILHTAWHPVDNVIAVAATNNLYIFQDKIN

Biological target: T1, FLAG Foxi3 FL 1–399 (mouse)
Test: affinity purification with mass spectrometry; HEK-293T transfected with FLAG Foxi3 FL 1–399 (blank 3XFLAG vector as control); whole cell lysates 48 h after transfection; immunoprecipitation with FLAG beads, SDS-PAGE, in-gel trypsin digestion, nanoHPLC-MS/MS searched against human RefSeq

Row | Molecule | binding
1 | PPP2CA (PP2A catalytic C subunit, isoform α), endogenous (from UniProt P67775 1-309) (enzyme) | binds
2 | PPP2CB (PP2A catalytic C subunit, isoform β), endogenous (from UniProt P62714 1-309) (enzyme) | binds
3 | PPP2R1A (PP2A scaffold A subunit, isoform α), endogenous (from UniProt P30153 1-589) | binds
4 | PPP2R2A (PP2A regulatory B subunit, isoform α), endogenous (from UniProt P63151 1-447) | binds
5 | B1 | binds
